Numbering of substitutions follows the chain as printed. No constants are given. Whether binding was seen depends on the method and setting. Binding calls can cover weak binding; strength is not graded here.

For three molecules, binding results are on record in patent publication US7288381 (PHADIA, dated 2007).

The chains are these.
B1: Phl p 2-specific human IgE Fab, clone 94 (Fab, V domains shown)
VH: LESGPGLVKPAQTLSLSCAVSGGSIRSGGYYWSWIRQHPGKGLEWIGYIYHSGNTYYNPSLKSRIAMSVDTSENKFSLRLNSVTAADTAVYYCARLDGYTLDIWGQGTLVTVSS
VL: ELTQSPSSLSASVGDRVTISCRASQRINTYLNWYQHKPGKAPKLLIYAASSLQSGVPSRFSGSGYGTDFTLTISSLQFEDFASYYCQESLSASYTFGQGTKVEIKR
notes: Human IgE Fab (heavy chain fragment Fd plus kappa light chain) expressed from pComb3H in E. coli and used as bacterial extract; they start at the Xho I / Sac I cloning sites; also called clone 94-derived IgE Fab; rPhl p 2-specific IgE Fab
B2: Phl p 2-specific human IgE Fab, clone 60 (Fab, V domains shown)
VH: LESGPGLVKPSQTLSLTCTVSGGSIRSGGYYWSWVRQPPGKGLEWIGNIYHSGNTYYNPSLKSRITMSVDTSKNHFSLRLTSVTAADTAVYYCARSDGYTLDNWGQGTLVTVSS
VL: ELTQSPSSLSASVGDRVTITCRARQSISTYLNWYQQKPGKAPKLLIWSASNLQSGVPSRFSGSGSGTEFTLTISNLQFEDFASYYCQQSYTTLYTFGSGTKLEIKR
notes: Human IgE Fab (Fd plus kappa light chain) expressed from pComb3H in E. coli and used as bacterial extract; also called rPhl p 2-specific IgE Fab; anti-Phl p 2 Fab
B3: Phl p 2-specific human IgE Fab, clone 100 (Fab, V domains shown)
VH: B2 VH with V35I, N48Y, I65V, T81S
VL: ELTQSPSSVSASVGDRVTITCRASQGISSWLAWYQHQPGKAPKLLIYSASSLQSGVPSRFSGSGYGTDFSLTISSLQFEDSATYYCQQANSFPYTFGQGTKVEIKR
notes: as for B2

One test concerns the target natural group 2 allergen from Kentucky Bluegrass pollen (Kentucky Bluegrass). The experiment in a line: particle blotting of pollen grains.
For the molecule B1, the binding entry is reported as “binds”.
For B2, the binding result was “binds”.
In the case of B3, the binding result is “binds”.

The next test has as its target natural group 2 allergen from oat pollen (oat). The experiment in a line: particle blotting of pollen grains.
For B1, the binding result is recorded as “binds”.
As for B2, the binding entry is given as “binds”.
Turning to B3, the binding result is listed as “binds”.

Another test has as its target natural group 2 allergen from rye pollen (rye). The experiment in a line: particle blotting of pollen grains.
B1: the binding entry is reported as “binds”.
Consider B2, for which the binding entry is listed as “binds”.
As to B3, the binding entry was “binds”.

The target of another test is natural group 2 allergen from sweet vernal grass pollen (sweet vernal grass). The experiment in a line: particle blotting of pollen grains.
As for B1, the binding entry is listed as “binds”.
With B2, the binding entry was “binds”.
For B3, the binding entry is recorded as “binds”.

The next test has as its target natural group 2 allergen from Kentucky Bluegrass pollen (Kentucky Bluegrass). The experiment in a line: immunoblot of natural pollen extracts.
Consider B1, for which the binding result is “binds”.
For the molecule B2, the binding entry is “binds”.
On to B3, for which the binding entry is on record as “binds”.

A further test deals with natural group 2 allergen from oat pollen (oat). The experiment in a line: immunoblot of natural pollen extracts. Background: Immunoblotting shows a protein as a band on a membrane.
Turning to B1, the binding entry is “binds”.
Take B2: the binding entry is “binds”.
Turning to B3, the binding entry was “binds”.

The target of the next test is natural group 2 allergen from rye pollen (rye). The experiment in a line: immunoblot of natural pollen extracts.
With B1, the binding entry is given as “binds”.
For the molecule B2, the binding result is “binds”.
With B3, the binding result is reported as “binds”.

The next test has as its target natural group 2 allergen from sweet vernal grass pollen (sweet vernal grass). In words: immunoblot of natural pollen extracts.
Turning to B1, the binding result is recorded as “binds”.
B2: the binding entry was “binds”.
Consider B3, for which the binding entry is listed as “binds”.
